# Results are given in words; binding and its absence hold for the method and conditions named. Binding seen in cells or lysates may run through a third protein. Binding calls can cover weak binding; strength is not graded here.
# Chains of the proteins cited; added tags and fusions are not shown. Lines headed by an entry give the natural chain unless they say otherwise; changes in a name come on top.
# UniProt Q7L9L4: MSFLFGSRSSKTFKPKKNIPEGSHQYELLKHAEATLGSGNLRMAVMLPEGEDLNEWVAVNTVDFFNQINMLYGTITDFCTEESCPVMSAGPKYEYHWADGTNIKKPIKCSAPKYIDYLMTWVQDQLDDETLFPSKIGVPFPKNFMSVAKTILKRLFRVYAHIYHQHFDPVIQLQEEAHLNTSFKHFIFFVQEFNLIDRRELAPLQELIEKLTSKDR
# Target: GST-MOB1B (human) (UniProt Q7L9L4)
# Assay: pull-down; ~1 ug GST-MOB1B on glutathione-Sepharose beads, 2 h with lysate (CHAPS lysis buffer: 40 mM Hepes pH 7.5, 120 mM NaCl, 1 mM EDTA, 0.3% CHAPS) of cells expressing FLAG- or BirA*-FLAG-tagged MST1 constructs after 150 nM okadaic acid for 2.5 h; anti-FLAG immunoblot; only the target purified
row,Substance,binding
1,3xFLAG-MST1 wild-type (from UniProt Q13043-1 1-487),binds
2,BirA*-FLAG-tagged full-length MST1 (from UniProt Q13043-1 1-487),binds

# — article PMC5461540, “MOB1 Mediated Phospho-recognition in the Core Mammalian Hippo Pathway” (Molecular & Cellular Proteomics : MCP, 2017)
